PubChem BioAssay AID1259308, NCATS, 2017
Aim: 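Knock-downs that increase output of a recombinant reporter protein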 (primary screen). System: human HEK293 embryonic kidney cells stably expressing firefly luciferase (HEK-CMV-Luc2-Hygro). Reagents: single siRNA against human genes, 0.8 pmol siRNA per well. Time to read-out: 72 h. Measured: 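Reporter luminescence and viable-cell signal on separate replicate plates, given as percent of non-targeting control and median/MAD z-scores, plus per-cell luciferase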. Reading the numbers: total luciferase, z-score: higher = more reporter protein produced. Hit rule: 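An siRNA counts as active if its total luciferase robust z-score exceeds 3; genes with two or more such siRNAs out of three were retested with fresh siRNAs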. Meaning of the calls: active = raised luciferase; inactive = no rise.
Shown is an unselected part of about 59,000 reagents tested. About 1,510 of all reagents (2.6%) count as active. 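Calls use total luciferase alone and ignore viability, so some active siRNAs may act by altering cell number.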 Entries without a mark were called inactive. Further read-outs or replicates are left out here.

Knock-down of HPS1 [SID160723865] gave: total luciferase, z-score 0.0207.
Knock-down of HPS1 [SID160723866] resulted in: total luciferase, z-score -0.0291.
After knock-down of HPS1 [SID160723867], the screen gave total luciferase, z-score -0.57.
Depletion of ZNF544 [SID160738683] gave: total luciferase, z-score -0.247.
For ZNF544 [SID160738684], the entry reads total luciferase, z-score -0.534.
After knock-down of ZNF544 [SID160738685] the results were total luciferase, z-score -1.25.
Silencing of DPYS [SID160730719] gave: total luciferase, z-score -0.776.
With knock-down of DPYS [SID160756105] the results were total luciferase, z-score 0.0791.
Silencing of DPYS [SID160756116] gave: total luciferase, z-score 0.248.
For OOSP1 [SID160762347], the values are total luciferase, z-score 0.108.
For OOSP1 [SID160762348], the entry reads total luciferase, z-score -0.474.
With knock-down of OOSP1 [SID160762350], the record shows total luciferase, z-score 0.0607.
